# The other results are listed elsewhere or left out. The list holds hits alone, and they repeat only in part.
# Sequences of proteins named here, by UniProt entry; tags and fusion partners are left off.
# EIF2B5, Q13144, UniProt Q13144, whole entry: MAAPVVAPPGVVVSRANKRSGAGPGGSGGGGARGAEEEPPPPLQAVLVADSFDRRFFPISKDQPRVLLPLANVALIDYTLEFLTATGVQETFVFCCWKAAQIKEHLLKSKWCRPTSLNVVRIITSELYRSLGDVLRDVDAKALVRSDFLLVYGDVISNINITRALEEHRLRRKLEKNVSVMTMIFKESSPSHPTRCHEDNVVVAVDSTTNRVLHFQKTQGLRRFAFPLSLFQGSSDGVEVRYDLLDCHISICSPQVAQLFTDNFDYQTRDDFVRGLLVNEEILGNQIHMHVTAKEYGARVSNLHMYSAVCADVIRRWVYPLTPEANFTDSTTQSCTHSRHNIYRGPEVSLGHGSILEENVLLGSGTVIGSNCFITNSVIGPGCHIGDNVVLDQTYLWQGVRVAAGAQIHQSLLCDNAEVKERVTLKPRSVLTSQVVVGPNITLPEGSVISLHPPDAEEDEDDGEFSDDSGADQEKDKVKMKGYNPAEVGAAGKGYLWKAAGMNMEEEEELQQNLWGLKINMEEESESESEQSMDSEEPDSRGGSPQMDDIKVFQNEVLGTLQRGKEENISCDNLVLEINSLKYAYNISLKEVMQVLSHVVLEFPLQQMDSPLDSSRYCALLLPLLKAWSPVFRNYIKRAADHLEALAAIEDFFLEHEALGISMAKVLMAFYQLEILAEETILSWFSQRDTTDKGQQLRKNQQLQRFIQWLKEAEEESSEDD
# INTS12, Q96CB8, UniProt Q96CB8, whole entry: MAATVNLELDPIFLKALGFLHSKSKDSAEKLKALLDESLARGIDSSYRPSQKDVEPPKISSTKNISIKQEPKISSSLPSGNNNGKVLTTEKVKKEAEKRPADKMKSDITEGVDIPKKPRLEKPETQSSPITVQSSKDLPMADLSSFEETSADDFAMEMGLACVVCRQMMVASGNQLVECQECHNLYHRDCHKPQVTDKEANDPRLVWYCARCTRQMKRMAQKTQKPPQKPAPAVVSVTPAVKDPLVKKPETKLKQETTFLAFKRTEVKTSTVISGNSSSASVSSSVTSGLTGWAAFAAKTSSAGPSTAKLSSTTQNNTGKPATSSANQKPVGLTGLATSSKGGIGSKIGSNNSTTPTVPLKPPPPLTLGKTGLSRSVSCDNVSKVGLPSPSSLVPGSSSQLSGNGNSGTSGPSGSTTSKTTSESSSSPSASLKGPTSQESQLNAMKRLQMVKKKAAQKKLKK
# NMNAT1, Q9HAN9, UniProt Q9HAN9, whole entry: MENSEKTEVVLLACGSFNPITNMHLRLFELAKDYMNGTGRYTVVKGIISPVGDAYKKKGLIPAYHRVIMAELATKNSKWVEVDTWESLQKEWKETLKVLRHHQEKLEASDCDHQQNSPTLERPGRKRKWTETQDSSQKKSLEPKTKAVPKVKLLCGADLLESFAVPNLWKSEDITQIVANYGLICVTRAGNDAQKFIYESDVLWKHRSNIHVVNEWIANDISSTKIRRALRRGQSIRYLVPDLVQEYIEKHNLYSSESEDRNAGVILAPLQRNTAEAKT
# UNC13C, Q8NB66, UniProt Q8NB66, whole entry: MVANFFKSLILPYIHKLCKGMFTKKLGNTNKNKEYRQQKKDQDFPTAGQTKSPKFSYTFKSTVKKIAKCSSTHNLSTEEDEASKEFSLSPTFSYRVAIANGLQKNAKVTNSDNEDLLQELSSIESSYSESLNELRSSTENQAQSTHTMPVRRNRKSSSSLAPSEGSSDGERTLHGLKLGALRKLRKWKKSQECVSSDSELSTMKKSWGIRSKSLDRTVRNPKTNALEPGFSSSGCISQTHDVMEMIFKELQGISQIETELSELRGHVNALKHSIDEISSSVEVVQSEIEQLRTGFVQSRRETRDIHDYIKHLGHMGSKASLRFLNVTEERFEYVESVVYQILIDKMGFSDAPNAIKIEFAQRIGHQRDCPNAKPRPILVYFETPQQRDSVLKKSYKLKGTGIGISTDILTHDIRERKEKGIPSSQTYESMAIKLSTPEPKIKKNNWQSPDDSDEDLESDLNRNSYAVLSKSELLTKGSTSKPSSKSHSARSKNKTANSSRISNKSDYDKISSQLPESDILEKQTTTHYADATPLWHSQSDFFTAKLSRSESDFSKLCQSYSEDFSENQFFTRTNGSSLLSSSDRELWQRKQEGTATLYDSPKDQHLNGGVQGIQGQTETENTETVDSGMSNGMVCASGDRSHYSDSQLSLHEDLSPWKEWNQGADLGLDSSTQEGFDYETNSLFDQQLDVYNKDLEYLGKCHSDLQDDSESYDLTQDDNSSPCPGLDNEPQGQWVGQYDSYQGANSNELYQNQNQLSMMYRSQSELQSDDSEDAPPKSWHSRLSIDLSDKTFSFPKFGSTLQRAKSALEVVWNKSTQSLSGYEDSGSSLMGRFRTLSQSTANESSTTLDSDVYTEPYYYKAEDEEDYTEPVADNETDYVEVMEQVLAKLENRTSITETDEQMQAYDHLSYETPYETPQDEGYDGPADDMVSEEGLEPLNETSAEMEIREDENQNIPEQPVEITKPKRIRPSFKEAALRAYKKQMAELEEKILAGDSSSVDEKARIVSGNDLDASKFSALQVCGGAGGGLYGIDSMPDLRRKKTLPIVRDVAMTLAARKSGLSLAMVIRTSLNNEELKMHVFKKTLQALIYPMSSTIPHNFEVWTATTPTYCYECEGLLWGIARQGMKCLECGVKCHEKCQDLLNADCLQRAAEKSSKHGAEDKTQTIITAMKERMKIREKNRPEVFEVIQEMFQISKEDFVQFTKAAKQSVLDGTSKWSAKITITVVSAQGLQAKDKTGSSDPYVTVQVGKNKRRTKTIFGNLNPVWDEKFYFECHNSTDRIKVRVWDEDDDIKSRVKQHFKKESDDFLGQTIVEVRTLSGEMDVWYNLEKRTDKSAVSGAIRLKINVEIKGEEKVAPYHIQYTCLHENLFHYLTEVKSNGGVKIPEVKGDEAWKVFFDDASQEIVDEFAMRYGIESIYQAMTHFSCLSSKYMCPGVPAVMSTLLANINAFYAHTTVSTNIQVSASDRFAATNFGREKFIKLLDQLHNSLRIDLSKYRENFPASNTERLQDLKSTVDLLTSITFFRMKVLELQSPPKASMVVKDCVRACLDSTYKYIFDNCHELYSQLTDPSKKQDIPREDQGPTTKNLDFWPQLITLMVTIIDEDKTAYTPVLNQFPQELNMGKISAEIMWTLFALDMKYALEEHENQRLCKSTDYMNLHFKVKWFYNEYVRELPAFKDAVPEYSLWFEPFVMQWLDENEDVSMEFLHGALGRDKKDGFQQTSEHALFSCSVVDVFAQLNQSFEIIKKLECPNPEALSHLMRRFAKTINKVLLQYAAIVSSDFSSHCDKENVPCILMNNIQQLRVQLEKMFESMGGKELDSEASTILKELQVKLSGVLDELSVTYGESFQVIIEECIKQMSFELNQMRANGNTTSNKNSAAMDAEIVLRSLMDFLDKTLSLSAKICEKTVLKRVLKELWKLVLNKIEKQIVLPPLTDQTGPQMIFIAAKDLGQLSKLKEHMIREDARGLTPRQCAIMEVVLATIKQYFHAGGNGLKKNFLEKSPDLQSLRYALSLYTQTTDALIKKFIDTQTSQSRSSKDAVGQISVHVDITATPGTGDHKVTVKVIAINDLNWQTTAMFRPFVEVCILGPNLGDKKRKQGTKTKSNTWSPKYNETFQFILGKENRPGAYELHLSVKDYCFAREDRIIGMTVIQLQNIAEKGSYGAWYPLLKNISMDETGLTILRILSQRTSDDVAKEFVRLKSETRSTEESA
# C7orf31, Q8N865, UniProt Q8N865, whole entry: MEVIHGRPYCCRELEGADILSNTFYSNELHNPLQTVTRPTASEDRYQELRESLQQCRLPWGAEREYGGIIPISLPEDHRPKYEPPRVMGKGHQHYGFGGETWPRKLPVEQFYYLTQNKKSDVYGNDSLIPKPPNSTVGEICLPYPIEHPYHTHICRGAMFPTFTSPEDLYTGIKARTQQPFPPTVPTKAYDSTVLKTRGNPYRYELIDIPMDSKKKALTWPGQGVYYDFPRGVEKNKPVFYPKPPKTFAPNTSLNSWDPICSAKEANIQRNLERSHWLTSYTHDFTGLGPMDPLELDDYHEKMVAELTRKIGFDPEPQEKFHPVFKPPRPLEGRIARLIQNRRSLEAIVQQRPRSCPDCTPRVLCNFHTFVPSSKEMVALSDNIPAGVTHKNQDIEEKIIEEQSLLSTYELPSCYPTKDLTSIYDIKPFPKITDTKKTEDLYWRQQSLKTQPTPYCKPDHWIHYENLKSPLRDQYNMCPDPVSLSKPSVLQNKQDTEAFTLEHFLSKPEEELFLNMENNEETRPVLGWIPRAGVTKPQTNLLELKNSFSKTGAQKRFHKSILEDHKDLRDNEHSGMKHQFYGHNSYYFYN
# ITGAD, Q13349, UniProt Q13349, whole entry: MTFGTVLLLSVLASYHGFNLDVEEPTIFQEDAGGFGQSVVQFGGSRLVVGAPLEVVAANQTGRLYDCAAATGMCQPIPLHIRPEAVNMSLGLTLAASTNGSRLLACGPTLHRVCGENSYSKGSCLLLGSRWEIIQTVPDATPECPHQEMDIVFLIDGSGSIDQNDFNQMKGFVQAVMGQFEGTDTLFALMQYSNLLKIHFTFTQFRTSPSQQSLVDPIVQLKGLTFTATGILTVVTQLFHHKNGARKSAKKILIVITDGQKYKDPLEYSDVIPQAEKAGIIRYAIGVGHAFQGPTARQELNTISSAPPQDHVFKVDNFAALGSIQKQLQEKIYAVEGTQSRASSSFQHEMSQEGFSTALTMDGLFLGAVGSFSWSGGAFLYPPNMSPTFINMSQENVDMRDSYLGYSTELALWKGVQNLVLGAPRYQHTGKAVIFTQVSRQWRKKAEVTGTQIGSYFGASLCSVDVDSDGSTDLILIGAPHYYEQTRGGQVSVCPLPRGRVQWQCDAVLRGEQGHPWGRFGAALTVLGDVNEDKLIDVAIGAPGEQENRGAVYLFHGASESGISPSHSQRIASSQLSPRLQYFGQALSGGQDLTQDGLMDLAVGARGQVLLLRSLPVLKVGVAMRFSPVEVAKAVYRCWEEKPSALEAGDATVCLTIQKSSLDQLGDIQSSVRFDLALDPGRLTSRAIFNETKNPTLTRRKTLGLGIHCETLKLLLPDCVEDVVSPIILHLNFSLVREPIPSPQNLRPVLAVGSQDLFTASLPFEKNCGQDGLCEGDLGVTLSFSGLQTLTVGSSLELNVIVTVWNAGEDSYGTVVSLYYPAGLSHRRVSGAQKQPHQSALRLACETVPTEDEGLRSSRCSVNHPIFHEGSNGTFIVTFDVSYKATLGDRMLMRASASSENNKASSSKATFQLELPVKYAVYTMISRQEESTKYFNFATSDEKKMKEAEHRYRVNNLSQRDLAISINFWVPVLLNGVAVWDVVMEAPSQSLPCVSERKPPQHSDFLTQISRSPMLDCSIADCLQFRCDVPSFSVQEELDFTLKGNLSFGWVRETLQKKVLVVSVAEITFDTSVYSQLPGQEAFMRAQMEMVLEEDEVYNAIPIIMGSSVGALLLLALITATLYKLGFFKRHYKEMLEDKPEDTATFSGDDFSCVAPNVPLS
# PSMC6, P62333, UniProt P62333, whole entry: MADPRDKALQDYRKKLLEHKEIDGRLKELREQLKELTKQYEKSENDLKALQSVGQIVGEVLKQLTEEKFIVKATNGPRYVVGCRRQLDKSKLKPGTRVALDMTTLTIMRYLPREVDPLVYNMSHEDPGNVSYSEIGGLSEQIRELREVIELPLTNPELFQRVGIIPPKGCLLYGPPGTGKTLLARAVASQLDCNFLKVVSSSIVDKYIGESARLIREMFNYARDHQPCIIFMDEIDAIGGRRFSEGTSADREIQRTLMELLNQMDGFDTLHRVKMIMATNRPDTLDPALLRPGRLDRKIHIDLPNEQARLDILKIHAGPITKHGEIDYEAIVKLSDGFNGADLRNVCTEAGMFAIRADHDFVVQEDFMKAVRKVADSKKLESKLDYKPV
# B1: IDI2-AS1 (peptide)
# chain: MQWPEVPALPLLSSL
# B2: RP11-464C19.3 (peptide)
# chain: AHGCRPEWRWLWLGR
# B3: TRDN-AS1_2 (peptide)
# chain: SSVKEAWMKKQRQSQ
# B4: DANCR (peptide)
# chain: SMQLTLTLNTLQLHS
# Assays:
# Assay in all cases: PRISMA enrichment of interactor (LFQ) in peptide spot vs all other peptide spots (log2 fold change); higher = stronger / more specific binding of the interactor to the peptide
# [1] = target: ANP32E, Q9BTT0
# Procedure: (§1)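 PRISMA: 15-aa overlapping tiles (offset 8 aa) of 60 microproteins, plus SOS1/GLUT1 control peptides, were spot-synthesized on cellulose membranes in triplicate. Membranes were incubated with benzonase-treated HEK293T lysate, and bound proteins were identified by LC-MS/MS with LFQ. Enrichment is the log2 fold change of each protein in one spot versus all other spots. Only interactors passing the significance cutoff are listed.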
# [2] = target: EHD1, Q9H4M9
# Procedure: as §1
# [3] = target: FAM91A1, Q658Y4
# Procedure: as §1
# [4] = substrate: PPIF, P30405
# Procedure: as §1
# [5] = target: PRMT1, Q99873
# Procedure: as §1
# [6] = target: PSME3, P61289
# Procedure: as §1
# [7] = target: RAB10, P61026
# Procedure: as §1
# [8] = target: SNW1, Q13573
# Procedure: as §1
# [9] = target: ASPH, Q12797
# Procedure: as §1
# [10] = target: DCUN1D5, Q9BTE7
# Procedure: as §1
# [11] = target: EIF2B5, Q13144
# Procedure: as §1
# [12] = target: INTS12, Q96CB8
# Procedure: as §1
# [13] = target: KARS, Q15046
# Procedure: as §1
# [14] = target: MKI67, P46013
# Procedure: as §1
# [15] = target: MRPS22, P82650
# Procedure: as §1
# [16] = target: NMNAT1, Q9HAN9
# Procedure: as §1
# [17] = target: PHF3, Q92576
# Procedure: as §1
# [18] = target: PUM1, Q14671
# Procedure: as §1
# [19] = target: RBMXL1, Q96E39
# Procedure: as §1
# [20] = target: S100A8, P05109
# Procedure: as §1
# [21] = target: SCP2, P22307
# Procedure: as §1
# [22] = target: TRMT5, Q32P41
# Procedure: as §1
# [23] = target: XRN1, Q8IZH2
# Procedure: as §1
# [24] = target: UNC13C, Q8NB66
# Procedure: as §1
# [25] = target: ANXA1, P04083
# Procedure: as §1
# [26] = target: APOC4, P55056
# Procedure: as §1
# [27] = target: BRMS1L, Q5PSV4
# Procedure: as §1
# [28] = target: C7orf31, Q8N865
# Procedure: as §1
# [29] = target: CCAR1, Q8IX12
# Procedure: as §1
# [30] = target: DNAJA3, Q96EY1
# Procedure: as §1
# [31] = target: DNAJB11, Q9UBS4
# Procedure: as §1
# [32] = target: FANCA, O15360
# Procedure: as §1
# [33] = target: ITGAD, Q13349
# Procedure: as §1
# [34] = target: NUP62, P37198
# Procedure: as §1
# [35] = target: PSMC6, P62333
# Procedure: as §1
# [36] = target: PTGR2, Q8N8N7
# Procedure: as §1
# [37] = target: TRMT44, Q8IYL2
# Procedure: as §1
binder,measurement,setting,value
B1,PRISMA enrichment of interactor (log2),[1],5.54
same,PRISMA enrichment of interactor (log2),[2],4.81
same,PRISMA enrichment of interactor (log2),[3],6.18
same,PRISMA enrichment of interactor (log2),[4],5.88
same,PRISMA enrichment of interactor (log2),[5],8.46
same,PRISMA enrichment of interactor (log2),[6],6.88
same,PRISMA enrichment of interactor (log2),[7],4.82
same,PRISMA enrichment of interactor (log2),[8],4.43
B2,PRISMA enrichment of interactor (log2),[1],8.73
same,PRISMA enrichment of interactor (log2),[9],3.7
same,PRISMA enrichment of interactor (log2),[10],5.24
same,PRISMA enrichment of interactor (log2),[11],4.4
same,PRISMA enrichment of interactor (log2),[12],4.47
same,PRISMA enrichment of interactor (log2),[13],4.61
same,PRISMA enrichment of interactor (log2),[14],4.85
same,PRISMA enrichment of interactor (log2),[15],5.07
same,PRISMA enrichment of interactor (log2),[16],4.81
same,PRISMA enrichment of interactor (log2),[17],5.08
same,PRISMA enrichment of interactor (log2),[18],5.49
same,PRISMA enrichment of interactor (log2),[19],4.6
same,PRISMA enrichment of interactor (log2),[20],4.06
same,PRISMA enrichment of interactor (log2),[21],5.93
same,PRISMA enrichment of interactor (log2),[22],4.54
same,PRISMA enrichment of interactor (log2),[23],4.46
B3,PRISMA enrichment of interactor (log2),[1],3.83
same,PRISMA enrichment of interactor (log2),[24],4.1
B4,PRISMA enrichment of interactor (log2),[25],3.67
same,PRISMA enrichment of interactor (log2),[26],5.3
same,PRISMA enrichment of interactor (log2),[27],9.21
same,PRISMA enrichment of interactor (log2),[28],4.85
same,PRISMA enrichment of interactor (log2),[29],5.25
same,PRISMA enrichment of interactor (log2),[30],6.49
same,PRISMA enrichment of interactor (log2),[31],4.2
same,PRISMA enrichment of interactor (log2),[32],4.46
same,PRISMA enrichment of interactor (log2),[33],5.15
same,PRISMA enrichment of interactor (log2),[34],3.57
same,PRISMA enrichment of interactor (log2),[35],5.14
same,PRISMA enrichment of interactor (log2),[36],5.08
same,PRISMA enrichment of interactor (log2),[37],4.71

# Part of the list above, set out differently.
binder	measurement	setting	value
B4	PRISMA enrichment of interactor (log2)	[30]	6.49
same	PRISMA enrichment of interactor (log2)	[31]	4.2

# From the supplement of paper PMC10032668
